Measured values reported in publication PMC7910438, “The TUTase URT1 connects decapping activators and prevents the accumulation of excessively deadenylated mRNAs to avoid siRNA biogenesis” (Nature Communications, 2021).

Molecular target: T1, 6His-GST-URT1 (Arabidopsis thaliana, UniProt O64642 1-764)
T1 construct: URT1, Arabidopsis thaliana, AT2G45620, 764 amino acids; amplified from cDNA; Plasmids in Supplementary Data 7; expression and purification in Supplementary Methods; source: E. coli BL21 DE3, purified; not shown: 6His, N-terminal, kept; GST, N-terminal, kept
T1 sequence (looked up): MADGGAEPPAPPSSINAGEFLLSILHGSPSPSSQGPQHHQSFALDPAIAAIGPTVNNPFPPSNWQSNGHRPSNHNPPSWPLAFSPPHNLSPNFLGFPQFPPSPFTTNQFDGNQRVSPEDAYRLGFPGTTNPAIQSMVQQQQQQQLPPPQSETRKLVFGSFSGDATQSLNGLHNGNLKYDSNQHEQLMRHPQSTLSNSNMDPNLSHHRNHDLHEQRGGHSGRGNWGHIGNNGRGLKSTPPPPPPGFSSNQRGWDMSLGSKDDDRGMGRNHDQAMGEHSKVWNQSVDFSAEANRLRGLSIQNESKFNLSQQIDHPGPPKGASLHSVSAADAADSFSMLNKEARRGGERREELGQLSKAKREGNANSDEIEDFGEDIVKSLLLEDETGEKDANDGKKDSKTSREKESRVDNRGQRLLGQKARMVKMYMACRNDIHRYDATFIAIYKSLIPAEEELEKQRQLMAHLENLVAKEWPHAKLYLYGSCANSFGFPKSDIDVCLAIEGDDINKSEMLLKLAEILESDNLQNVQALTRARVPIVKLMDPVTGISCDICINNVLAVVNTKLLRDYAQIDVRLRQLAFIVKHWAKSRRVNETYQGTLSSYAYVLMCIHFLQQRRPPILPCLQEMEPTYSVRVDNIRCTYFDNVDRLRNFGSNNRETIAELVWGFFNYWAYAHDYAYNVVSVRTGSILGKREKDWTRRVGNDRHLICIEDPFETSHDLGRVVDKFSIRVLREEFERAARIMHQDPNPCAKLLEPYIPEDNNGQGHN
Test: pull-down; GST pull-down on glutathione sepharose; 10 pmol of each purified protein in 500 µl of 20 mM MOPS pH 7.2, 100 mM KCl, 15% glycerol, 0.1% Tween 20 with 100 ng/µl RNase A, 4 °C; SDS-PAGE, SYPRO Ruby; both purified

With “6His-MBP-∆LSmDCP5 (Arabidopsis thaliana) (domain or fragment)” as the substance, how does the binding read?
Its binding is “no binding (tested: 10 pmol of each protein in 500 µl)”.

No constants are given. Whether binding was seen depends on the method and setting. Where a sequence is shown, tags or fusion partners need not be part of it.
